{
  "sequences": {"note": "Chains of the proteins cited; added tags and fusions are not shown. Residues count along the entry.", "UniProt P02649, residues 19-317": "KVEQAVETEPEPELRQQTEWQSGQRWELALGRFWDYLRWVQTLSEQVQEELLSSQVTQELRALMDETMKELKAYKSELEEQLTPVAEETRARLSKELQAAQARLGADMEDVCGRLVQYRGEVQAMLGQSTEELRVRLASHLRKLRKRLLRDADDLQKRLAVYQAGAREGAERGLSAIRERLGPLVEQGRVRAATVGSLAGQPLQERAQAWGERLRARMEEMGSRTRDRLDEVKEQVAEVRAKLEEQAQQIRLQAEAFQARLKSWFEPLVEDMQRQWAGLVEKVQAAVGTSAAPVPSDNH"},
  "source": "paper PMC3946557",
  "target": "T1, FLAG-tagged GP73 (GP73-FL) (UniProt Q8NBJ4)",
  "T1 sequence": "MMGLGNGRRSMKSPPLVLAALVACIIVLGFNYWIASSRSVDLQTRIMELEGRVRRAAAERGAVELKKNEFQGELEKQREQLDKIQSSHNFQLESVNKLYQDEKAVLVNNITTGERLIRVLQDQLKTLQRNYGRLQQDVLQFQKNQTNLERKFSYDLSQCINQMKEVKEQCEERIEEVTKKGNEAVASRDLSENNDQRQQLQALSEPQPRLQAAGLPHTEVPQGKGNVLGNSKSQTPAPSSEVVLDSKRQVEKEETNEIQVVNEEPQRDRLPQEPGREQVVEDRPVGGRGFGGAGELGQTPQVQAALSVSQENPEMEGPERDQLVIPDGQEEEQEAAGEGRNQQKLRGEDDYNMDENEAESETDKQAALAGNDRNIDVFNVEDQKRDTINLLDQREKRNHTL",
  "test": "co-IP; 293T cells cotransfected with FLAG-tagged GP73 (or truncations) and HA-tagged APOE; lysis 30 h after transfection in 50 mM Tris-HCl pH 7.4, 150 mM NaCl, 5 mM EDTA, 0.5% NP40; immunoprecipitation with anti-Flag or anti-HA (normal mouse IgG as control) overnight at 4 °C, protein A/G beads, immunoblot",
  "note": "These are yes or no findings as the source states them, for the method shown. In cells and extracts the contact can be indirect. Some entries that bind do so weakly or less than the wild type. Tags and fused reporters may be left off the sequences shown.",
  "data": [
    {"substance": "HA-tagged APOE (from UniProt P02649 19-317)", "values": [
      {"measurement": "binding", "result": "binds"}
    ]}
  ]
}
